This note sets out measurements from PMC10958106.

Chains of the proteins cited; added tags and fusions are not shown.
UniProt Q96CW1: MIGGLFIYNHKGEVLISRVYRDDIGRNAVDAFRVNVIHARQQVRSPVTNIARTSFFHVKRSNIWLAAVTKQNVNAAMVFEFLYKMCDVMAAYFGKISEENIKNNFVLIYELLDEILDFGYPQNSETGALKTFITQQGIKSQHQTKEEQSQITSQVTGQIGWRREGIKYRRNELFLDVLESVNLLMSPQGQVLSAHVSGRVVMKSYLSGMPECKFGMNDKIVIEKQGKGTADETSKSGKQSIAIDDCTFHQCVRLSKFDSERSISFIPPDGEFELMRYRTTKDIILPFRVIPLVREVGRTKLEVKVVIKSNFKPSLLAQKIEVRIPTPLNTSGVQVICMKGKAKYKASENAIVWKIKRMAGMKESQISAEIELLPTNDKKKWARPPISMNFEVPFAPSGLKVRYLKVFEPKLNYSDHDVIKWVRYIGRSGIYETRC
UniProt P03129: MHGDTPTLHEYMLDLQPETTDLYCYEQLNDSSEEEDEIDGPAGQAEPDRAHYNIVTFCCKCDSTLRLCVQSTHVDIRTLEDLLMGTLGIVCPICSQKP

This assay addresses AP2M1-HA (UniProt Q96CW1). Nature of the assay: co-IP; HEK293 cells co-transfected with the receptor and AP2M1-HA (or empty vector), with or without HPV-16 E7 Wt-FLAG or E7 Y25A-FLAG; extracts incubated with anti-HA beads 3 h at 4 °C; Western blot.

No constants are given. Whether binding was seen depends on the method and setting. Binding seen in cells or lysates may run through a third protein. Some entries that bind do so weakly or less than the wild type.

As for “HPV-16 E7Wt-FLAG (from UniProt P03129 1-98)”, the binding entry is recorded as “binds”.
